Measured values reported in patent US6357163B1 (priority 1991, dated 2002).

Columns and labels:
[1] = general procedure: Boc solid-phase peptide synthesis; BHA resin; MBHA resin (initial substitution 0.3 mmol/g); pentafluorophenyl esters (BocTaeg-OPfp); conditions: whole synthesis; for crude HPLC purity / final HPLC purity: analytical reverse-phase HPLC (% of total absorbance)
[2] = general procedure: Boc solid-phase peptide synthesis; MBHA resin; pentafluorophenyl esters (BocTaeg-OPfp); conditions: whole synthesis

Substance | crude HPLC purity [1] | final HPLC purity [1] | other results
Acr^1-[Taeg]10-Lys-NH2 | about 45% | >97% | –
Acr^1-[Taeg]15-Lys-NH2 | about 35% | – | –
Ac—[Taeg]10-Lys-NH2 | about 75% | >95% | –
H-Taeg-Aaeg-[Taeg]8-Lys-NH2 | less than 50% | – | difficulty met [2]: about 50% incorporation of A(Z)aeg
H—[Taeg]2-Aaeg-[Taeg]5-Lys-NH2 | – | – | difficulty met [1]: a total of about 82% incorporation of A(Z)aeg after coupling three times
H—[Taeg]5-Caeg-[Taeg]4-Lys-NH2 | >50% | 96% | –
H—[Taeg]5-Lys-NH2 | about 90% | 99% | –
H—[Taeg]10-Lys-NH2 | – | – | crude HPLC purity ([1]; run 1): about 50%; final HPLC purity ([1]; run 1): >95%; crude HPLC purity ([1]; run 2): about 78%; final HPLC purity ([1]; run 2): 82%
